Measurements: publication PMC5679646
These are yes or no findings as the source states them, for the method shown. For some of these results: In cells and extracts the contact can be indirect. Some entries that bind do so weakly or less than the wild type. For some of these results: Where a sequence is shown, tags or fusion partners need not be part of it.

The chains behind the UniProt entries cited, without tags or fusion partners.
UniProt Q9Y4G2: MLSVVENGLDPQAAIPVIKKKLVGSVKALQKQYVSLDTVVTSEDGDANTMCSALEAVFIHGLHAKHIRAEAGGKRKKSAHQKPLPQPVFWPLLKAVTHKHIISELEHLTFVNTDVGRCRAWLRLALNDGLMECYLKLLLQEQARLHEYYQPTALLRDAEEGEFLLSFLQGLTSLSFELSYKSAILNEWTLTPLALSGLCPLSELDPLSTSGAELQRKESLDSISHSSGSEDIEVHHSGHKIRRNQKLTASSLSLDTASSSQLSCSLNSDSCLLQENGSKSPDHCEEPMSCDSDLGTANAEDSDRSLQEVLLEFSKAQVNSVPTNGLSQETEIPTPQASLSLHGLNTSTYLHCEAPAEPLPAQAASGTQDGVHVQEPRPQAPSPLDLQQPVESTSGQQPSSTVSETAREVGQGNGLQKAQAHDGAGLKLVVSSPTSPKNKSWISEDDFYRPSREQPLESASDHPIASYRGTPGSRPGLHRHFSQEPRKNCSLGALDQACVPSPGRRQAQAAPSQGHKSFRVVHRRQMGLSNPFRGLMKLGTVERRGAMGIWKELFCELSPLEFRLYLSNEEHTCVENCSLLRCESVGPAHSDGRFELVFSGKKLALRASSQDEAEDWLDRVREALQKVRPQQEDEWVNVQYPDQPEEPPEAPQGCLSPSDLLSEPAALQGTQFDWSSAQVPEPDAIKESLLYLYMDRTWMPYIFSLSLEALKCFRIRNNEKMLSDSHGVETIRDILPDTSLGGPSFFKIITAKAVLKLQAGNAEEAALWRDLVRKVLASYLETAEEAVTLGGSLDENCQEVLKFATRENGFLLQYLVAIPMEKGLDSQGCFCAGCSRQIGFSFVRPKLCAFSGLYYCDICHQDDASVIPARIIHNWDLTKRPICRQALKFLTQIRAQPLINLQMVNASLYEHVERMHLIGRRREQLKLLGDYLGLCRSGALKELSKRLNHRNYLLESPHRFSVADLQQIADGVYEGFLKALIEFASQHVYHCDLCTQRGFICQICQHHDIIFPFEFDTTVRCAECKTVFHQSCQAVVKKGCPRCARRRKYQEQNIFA

Assays:
[1] = target: T1, GST tagged-SifA (Salmonella enterica serovar typhimurium) (UniProt Q56061); assay: pull-down; GST or GST tagged-SifA on glutathione resin (blocked with 5% BSA) incubated with lysates of transfected HEK293T cells in TAP lysis buffer, 4°C, 3 hr; four washes in TAP wash buffer; immunoblot; lysates with HA-Vps39 alone or with FLAG-SKIP or FLAG-PLEKHM1; only the target purified
T1 sequence: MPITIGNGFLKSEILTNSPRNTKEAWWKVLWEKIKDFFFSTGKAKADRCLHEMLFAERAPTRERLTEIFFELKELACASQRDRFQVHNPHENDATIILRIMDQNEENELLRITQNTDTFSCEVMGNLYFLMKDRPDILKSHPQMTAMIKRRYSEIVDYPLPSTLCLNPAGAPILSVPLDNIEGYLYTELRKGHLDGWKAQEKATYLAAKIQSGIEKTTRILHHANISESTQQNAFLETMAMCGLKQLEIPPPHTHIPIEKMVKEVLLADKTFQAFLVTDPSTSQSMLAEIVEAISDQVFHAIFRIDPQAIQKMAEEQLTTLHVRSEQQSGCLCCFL

[2] = target: T2, pGBKT7-SifA (Salmonella enterica serovar typhimurium) (UniProt Q56061); assay: two-hybrid; S. cerevisiae AH109; SifA as bait (GAL4-BD), SKIP and PLEKHM1 as prey (GAL4-AD); growth curve in SD-L/-W/-H broth at 30°C, monitored every 4 hr for 48 hr
T2 sequence: T1 sequence

FLAG-PLEKHM1 (from UniProt Q9Y4G2 1-1056)
binding [1]: binds

pGADT7-PLEKHM1 (from UniProt Q9Y4G2 1-1056)
binding [2]: binds

B1: pGADT7-SKIP (protein, UniProt Q8IWE5 1-1019)
chain: MEPGEVKDRILENISLSVKKLQSYFAACEDEIPAIRNHDKVLQRLCEHLDHALLYGLQDLSSGYWVLVVHFTRREAIKQIEVLQHVATNLGRSRAWLYLALNENSLESYLRLFQENLGLLHKYYVKNALVCSHDHLTLFLTLVSGLEFIRFELDLDAPYLDLAPYMPDYYKPQYLLDFEDRLPSSVHGSDSLSLNSFNSVTSTNLEWDDSAIAPSSEDYDFGDVFPAVPSVPSTDWEDGDLTDTVSGPRSTASDLTSSKASTRSPTQRQNPFNEEPAETVSSSDTTPVHTTSQEKEEAQALDPPDACTELEVIRVTKKKKIGKKKKSRSDEEASPLHPACSQKKCAKQGDGDSRNGSPSLGRDSPDTMLASPQEEGEGPSSTTESSERSEPGLLIPEMKDTSMERLGQPLSKVIDQLNGQLDPSTWCSRAEPPDQSFRTGSPGDAPERPPLCDFSEGLSAPMDFYRFTVESPSTVTSGGGHHDPAGLGQPLHVPSSPEAAGQEEEGGGGEGQTPRPLEDTTREAQELEAQLSLVREGPVSEPEPGTQEVLCQLKRDQPSPCLSSAEDSGVDEGQGSPSEMVHSSEFRVDNNHLLLLMIHVFRENEEQLFKMIRMSTGHMEGNLQLLYVLLTDCYVYLLRKGATEKPYLVEEAVSYNELDYVSVGLDQQTVKLVCTNRRKQFLLDTADVALAEFFLASLKSAMIKGCREPPYPSILTDATMEKLALAKFVAQESKCEASAVTVRFYGLVHWEDPTDESLGPTPCHCSPPEGTITKEGMLHYKAGTSYLGKEHWKTCFVVLSNGILYQYPDRTDVIPLLSVNMGGEQCGGCRRANTTDRPHAFQVILSDRPCLELSAESEAEMAEWMQHLCQAVSKGVIPQGVAPSPCIPCCLVLTDDRLFTCHEDCQTSFFRSLGTAKLGDISAVSTEPGKEYCVLEFSQDSQQLLPPWVIYLSCTSELDRLLSALNSGWKTIYQVDLPHTAIQEASNKKKFEDALSLIHSAWQRSDSLCRGRASRDPWC
binding [2]: binds

B2: FLAG-SKIP (protein, UniProt Q8IWE5 1-1019)
chain: B1 chain
binding [1]: binds
